Source: PMC3510517
Results are given in words; binding and its absence hold for the method and conditions named. Binding seen in cells or lysates may run through a third protein. These calls come from enrichment with a bait or labelling near it, and not all partners need be listed.

Biological target: T1, Sgf11 (Drosophila (endogenous in embryos)) (UniProt Q9VVR6)
T1 sequence: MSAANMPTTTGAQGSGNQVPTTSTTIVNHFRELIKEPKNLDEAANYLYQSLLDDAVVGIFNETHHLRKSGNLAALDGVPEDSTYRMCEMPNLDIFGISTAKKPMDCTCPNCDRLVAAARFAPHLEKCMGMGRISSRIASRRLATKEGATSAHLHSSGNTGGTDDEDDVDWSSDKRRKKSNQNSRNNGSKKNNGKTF
Test: affinity purification with mass spectrometry; stepwise chromatography of embryonic nuclear extract, Superose 6 fractions 33-35 (about 100 kDa) loaded on immobilised anti-Sgf11 antibodies, washed with HEMG-500 with 0.1% NP-40, eluted with acid glycine; SDS-PAGE, Coomassie, MALDI-TOF MS; control with IgG

binding: binds
B1: cap-binding protein 80 (Cbp80) (protein, UniProt Q7K4N3 1-800)
chain: MSRRRAHDTEDEGYDHRRNKRRRVSENQEIEDRLESLILRVGERSTSSVESNLEGLVSVLEADLGTFRLKILRILSDCAVRMPEKCTVYTTLVGLLNAKNYKFGGEFVDHMVKTFKESLKMCRWDAARYSLRFLADLVNCHVISATSLLQLLDTMIDVSNEDTVPQVRRDWFVFAVLSTLPWVGRDLYEKKESALESLLLRIEVYLNKRSKKHHNALRVWSSDAPHPQEEYLDCLWAQIRKLRQDNWAEKHIPRPYLVFDSILCEALQHNLPTIVPPPHHDNFEYPMPWVVYRMFDYTDCPDGPNLPGAHSIERFLIEEHLHHIIETYHHERKDCAAQLLSFPYKHKIPLEYCIVEVVFAELFHMPTPRYLDICYGSILIELCKLQPATLPQVLAQATEILFMRIDSMNTSCFDRFVNWFSYHLSNFKFTWSWDEWDSCLLLDGEHPRPKFIQEVLQKCLRLSYHQRITEMMPTTYAKLIPLTPVPNYKYANEEAANLPGTTVAHQLVVAIRQKCTPEEVVNILKDIPNSGYSGEEMSDGSFNALKIDVFVQTLLNLGSKSFSHSFAAISKFHSVFRALAETEEAQICILHNIFELWSSHQQMMVVLIDKLLKLQIVDCSAVATWIFSKEMTGEFTKLYLWEILHLTIKKMNKHVIKLNTELSEAKEKLAKADSSSSDSEDDSSHKRKKPITHADKPSEEVVERMEEKLEAANVNQKRLFLIVFQRFIMILSEHLLRSDTDGRDPDTDWYRWTIGRLQQVFLMHHEQVQKYSSTLETLLFTSDLDTHILEVFQQFVALRA
